The text below walks through data of PubChem BioAssay AID651647 (Sanford-Burnham Center for Chemical Genomics, 2012).

Molecules are shown by their SMILES. The list shows a part of the results.

A short description of the experiment: MT1-MMP activation inhibitors, cellular reporter – HT1080 RFP-PRO-GFP cells, GFP/RFP fluorescence, primary screen (AID 651647). The settings on record: GFP/RFP ratio fluorescence, overnight, RFP expression control read, at 20 µM. In short, it runs like this:
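Assay system – RFP-PRO-GFP reporter HT1080 cells · Compound dosing – single dose of 20 µM compound, 1% DMSO final · Incubation – overnight compound exposure at 37 °C · Measure – GFP/RFP fluorescence ratio · Benchmarks – DMSO wells and RFP-L50D-GFP cells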
For the molecule `CCC(=O)N(c1ccccc1)C1(COC)CCN(CCn2nnn(CC)c2=O)CC1`, the RFP signal change was 2.95%.
To `CCC(=O)N(c1ccccc1)C1(COC)CCN(CCc2cccs2)CC1` belongs 0.502%.
